Literature values in patent publication US6413909B1, “Herbicide composition for control of rye grass and vetch in preplant burndown” (priority 2001, dated 2002).
Some entries share one result that the patent states for a list of compounds.

Tested on: vetch
Conditions: herbicide alone; cited from earlier work

Compound: CCNc1nc(Cl)nc(NC(C)C)n1 [atrazine, 2-cloro-4-ethylamine-6-isopropylamino-s-triazine]
- effective against vetch: 65-75%
